# Measurements taken from PubChem BioAssay AID504444 (National Center for Advancing Translational Sciences (NCATS), 2011).
# Among all 360,000 compounds or so, about 7,500 (2.1%) were called active. The inconclusive results got no clear call from the source; some entries with a clear call stand among them for comparison. The call rests on the fitted dose curve; in most records, active means well fitted inhibition curve with a large enough effect; inconclusive means small, poorly fitted or top-dose-only effect, or effect the other way; inactive means flat fitted curve, though single readings scatter. Potencies of inconclusive entries are doubtful fits and often do not repeat.
# Experiment: Nrf2 qHTS screen for inhibitors; further: nearly all actives have a fitted effect of over 60% in size
# Conditions: A549 ARE-Fluc reporter, luciferase luminescence, 18-24 h; series mostly up to 46 µM
# In short: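 Nrf2 activity is the BugLite luminescence, read 15 min after reagent at room temperature, following CellTiter-Fluor cytotoxicity readout (30 min, 37C). Compound titrations were applied for 18-24 h to 5000 A549 ARE_Fluc cells/well in 5% FBS OPTI-MEM.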
# Potency means the concentration at half of the fitted maximal effect.
row,SMILES,Potency
1,COc1cc(NC(=O)c2c(-c3ccc(C)cc3)nnc3ccccc23)cc(OC)c1OC,"inconclusive: 29.1 µM [falling, single point]"
2,COc1ccccc1NS(=O)(=O)c1cccc(NC(=O)Nc2ccccc2)c1,active: 2.59 µM
3,COc1ccccc1NC(=O)N(Cc1ccco1)Cc1cc2cc(C)cc(C)c2[nH]c1=O,active: 23.1 µM
4,COc1cccc(C2c3c(ncn(-c4ccc(NC(C)=O)cc4)c3=N)Oc3ccc4ccccc4c32)c1 (stereo unspecified),inactive
5,O=C(NCC1CCN(S(=O)(=O)c2ccccc2)CC1)Nc1ccc(F)cc1,"inconclusive: 0.184 µM [activator, full curve, poor fit]"
6,C=CCn1c(CCc2cc(C(C)(C)C)c(O)c(C(C)(C)C)c2)n[nH]c1=S,inactive
7,Cc1cc(OCc2ccc(C(=O)n3cccn3)o2)ccc1Cl,"inconclusive: 3.66 µM [activator, full curve]"
8,C=CCOc1cccc(C2/C(=C(/O)c3ccc(C)cc3)C(=O)C(=O)N2CCN2CCOCC2)c1 (stereo unspecified),"inconclusive: 1.64 µM [falling, partial curve]"
9,O=[N+]([O-])c1cc(-c2nc(-c3ccccc3)no2)ccc1NCC1CCCO1 (stereo unspecified),"inconclusive: 32.6 µM [falling, single point]"
10,CCOC(=O)c1ccc2c(c1)N(Cc1cccc(OC)c1)C(=O)c1ccccc1S2(=O)=O,"inconclusive: 29.1 µM [activator, single point]"
11,COc1cccc(C#Cc2c(CO)[nH]c3ccccc23)c1,inactive
12,COc1ccccc1N(C)S(=O)(=O)c1ccc(Cl)c(C(=O)Nc2ccncc2)c1,"inconclusive: 20.6 µM [falling, partial curve]"
13,CCN(Cc1ccncc1)C(=O)c1cc(COc2ccc(C)c(C)c2)on1,"inconclusive: 9.2 µM [falling, partial curve, poor fit]"
14,CCc1ccc(C(=O)CSc2nnc(C3CC3)n2C2CC2)cc1,inactive
15,CC(=O)Nc1cccc(C(=O)OCC(=O)NNC(=O)c2ccc([N+](=O)[O-])cc2)c1,inactive
16,CCOC(=O)c1c(-c2ccccc2)oc2ccc(NS(=O)(=O)c3ccc(OC)cc3)cc12,"inconclusive: 18.4 µM [falling, single point]"
17,COCCOC(=O)c1[nH]c2c(c1C)C(=O)CC(c1ccc(OC)cc1)C2 (stereo unspecified),inactive
18,Cn1c(=O)c2c(nc(-n3ccnc3)n2Cc2ccc(Cl)cc2Cl)n(C)c1=O,"inconclusive: 32.6 µM [falling, single point]"
19,Cc1ccc(-n2c(SCC(=O)NC3CCS(=O)(=O)C3)nc3ccccc3c2=O)cc1C (stereo unspecified),"inconclusive: 0.103 µM [falling, full curve, poor fit]"
20,Cc1cc(C(=O)CSc2nnc(-c3ccco3)o2)c(C)n1-c1ccc2c(c1)OCCO2,"inconclusive: 29.1 µM [falling, single point]"
21,O=C(COC(=O)c1ccc(Br)o1)Nc1ncc([N+](=O)[O-])s1,inactive
22,Cc1ccc(C(=O)Oc2cc(N)n(S(=O)(=O)c3ccc(C)cc3)n2)cc1,active: 1.16 µM

row,SMILES,Potency
1,CCCCNC(=O)CCC(=O)NNc1nc2ccccc2c2nc(-c3ccccc3)nn12,"inconclusive: 3.26 µM [activator, single point]"
2,O=C(/C=N/NC(=O)c1ccccc1Br)c1ccccc1,"inconclusive: 11.6 µM [activator, partial curve, poor fit]"
3,CCOc1ccccc1NC(=O)CSc1ncnc2c1oc1ccccc12,"inconclusive: 29.1 µM [falling, single point]"
4,CCOC(=O)C1CCN(C(=O)Nc2ccc3nc(-c4ccco4)c(-c4ccco4)nc3c2)CC1,inactive
5,O=C(O)c1cccc(S(=O)(=O)Nc2cccc3ccccc23)c1,"inconclusive: 20.6 µM [activator, single point]"
6,Cc1ccc(-n2nnnc2-c2cccnc2)cc1,inactive
7,Cc1c(-c2ccccc2)[n+](=O)c2c(n1[O-])CCCC2,"inconclusive: 7.31 µM [activator, partial curve, poor fit]"
8,CC(=O)N1CCSc2ccc(S(=O)(=O)NCCc3ccc(C)cc3)cc21,"inconclusive: 18.4 µM [falling, single point]"
9,Cc1c(C)n(CCN(C)C)c2ncnc(NCc3ccccc3)c12,"inconclusive: 29.1 µM [activator, single point]"
10,O=C(N/N=C/C=C/c1ccccc1)c1ccccn1,"inconclusive: 1.64 µM [activator, partial curve, poor fit]"
11,O=C(O)c1ccccc1C(=O)c1ccc(Sc2ccc(Cl)cc2)c([N+](=O)[O-])c1,"inconclusive: 20.6 µM [falling, single point]"
12,O=C(c1ccccc1)N1CCN(C(=O)c2ccc([N+](=O)[O-])cc2)CC1,"inconclusive: 1.64 µM [activator, full curve, poor fit]"
13,O=C(CN1CCCc2ccccc21)Nc1cc(S(=O)(=O)N2CCCC2)ccc1Cl,"inconclusive: 29.1 µM [falling, single point]"
14,Clc1cccc(Nc2nc(-c3ccncc3)nc3ccccc23)c1,"inconclusive: 20.6 µM [falling, single point]"
15,CCC(CC)C(=O)Nc1ccc(OCc2cc(=O)n3ccsc3n2)cc1,inactive
16,O=[N+]([O-])c1cccc(NC(=S)N2CCc3ccccc3C2)c1,"inconclusive: 11.6 µM [activator, partial curve]"
17,O=S(=O)(Cc1noc(-c2ccc(Cl)cc2)n1)Cc1ccco1,"inconclusive: 20.6 µM [activator, partial curve]"
18,CC(C)c1nc2cc(Cl)ccc2n(Cc2ccccc2)c1=O,"inconclusive: 29.1 µM [activator, single point]"
19,COc1ccc(/C=C2\N=C(C)OC2=O)cc1OC,inactive
20,COc1cc(/C=C2\SC(=O)N(CC(=O)Nc3ccccc3F)C2=O)cc(Cl)c1O,"inconclusive: 23.1 µM [falling, single point]"
21,COc1ccc(C(=O)/C=C/c2ccccc2C(F)(F)F)cc1,"inconclusive: 23.1 µM [activator, single point]"
22,COc1cc(OC)cc(C(=O)Nc2ccc(-c3nc4ccccc4o3)c(O)c2)c1,"inconclusive: 25.9 µM [falling, single point]"

# Among those listed so far, these contain two or more sulfur atoms.
row,SMILES,Potency
19,Cc1ccc(-n2c(SCC(=O)NC3CCS(=O)(=O)C3)nc3ccccc3c2=O)cc1C (stereo unspecified),"inconclusive: 0.103 µM [falling, full curve, poor fit]"
8,CC(=O)N1CCSc2ccc(S(=O)(=O)NCCc3ccc(C)cc3)cc21,"inconclusive: 18.4 µM [falling, single point]"

# Looked up by structure from the list above, 2 records:
row,SMILES,Potency
10,O=C(N/N=C/C=C/c1ccccc1)c1ccccn1,"inconclusive: 1.64 µM [activator, partial curve, poor fit]"
16,O=[N+]([O-])c1cccc(NC(=S)N2CCc3ccccc3C2)c1,"inconclusive: 11.6 µM [activator, partial curve]"

# Remaining list, next part:

row,SMILES,Potency
1,Cc1ccc2ncnc(Oc3ncccc3NC(=O)C(C)(C)C)c2c1,inactive
2,Cc1ccc(C(=O)OC/C(O)=C(\C#N)c2nc3ccccc3[nH]2)cc1S(=O)(=O)N1CCOCC1,inactive
3,COc1cccc(OCC(=O)N(C)Cc2nc(-c3ccccc3)no2)c1,"inconclusive: 18.4 µM [activator, single point]"
4,Cc1occc(=O)c1OC(=O)Nc1ccc(Cl)c(Cl)c1,"inconclusive: 29.1 µM [falling, single point]"
5,C[C@@H]1C[C@H]2[C@@H]3C[C@H](F)C4=CC(=O)C=C[C@]4(C)[C@@]3(Cl)[C@@H](O)C[C@]2(C)[C@H]1C(=O)COC(=O)C(C)(C)C,active: 0.0065 µM
6,O=C(Nc1cccc(C(=O)Nc2ccccc2F)c1)c1ccccc1,"inconclusive: 23.1 µM [falling, single point]"
7,Cc1ccc(Nc2c(-c3ccc(C)o3)nc3ncccn23)cc1,inactive
8,N#C/C(=C\c1ccc(Oc2ccc(C(F)(F)F)cc2[N+](=O)[O-])cc1)c1nc2ccccc2[nH]1,active: 16.4 µM
9,CCCCn1c(N)c(N(CCOC)C(=O)c2cc(-c3ccccc3Cl)nc3ccccc23)c(=O)[nH]c1=O,"inconclusive: 11.6 µM [falling, partial curve, poor fit]"
10,COC1=CC(=O)c2c(ccc3ncnc(N)c23)C1=O,active: 4.61 µM
11,CC(=O)Nc1cc2c(cc1Cl)-c1ccccc1C2,"inconclusive: 13 µM [activator, partial curve]"
12,COC(=O)c1ccc(CNC(=O)N2CCN(S(=O)(=O)c3ccc(C)cc3)CC2)cc1,"inconclusive: 8.2 µM [falling, partial curve]"
13,O=C(CCCCn1c(=O)c2ccccc2n(Cc2ccc(Cl)cc2)c1=O)NCc1ccccc1Cl,"inconclusive: 18.4 µM [falling, partial curve, poor fit]"
14,Cc1cc(OC(C)C(=O)N(Cc2ccco2)Cc2ccccc2F)cc(C)c1Cl (stereo unspecified),"inconclusive: 16.4 µM [falling, partial curve, poor fit]"
15,CCCCCCCCOC(=O)c1cc([N+](=O)[O-])c(Sc2ncnc3nc[nH]c23)c([N+](=O)[O-])c1,inactive
16,O=C1CN(C(=O)COc2ccc(F)cc2Cl)c2ccccc2N1,"inconclusive: 0.103 µM [activator, full curve, poor fit]"
17,Cc1sc2ncnc(N3CCC(C(=O)Nc4cc(S(C)(=O)=O)ccc4Cl)CC3)c2c1C,active: 18.4 µM
18,COc1ccc(NC(=O)C2CCCN(C(=O)c3cnn(-c4ccc(F)cc4)c3-n3cccc3)C2)cc1 (stereo unspecified),"inconclusive: 32.6 µM [activator, single point]"
19,CCOc1cc(C(=O)Nc2cc(C)ccc2OC)ccc1OCC(=O)N1CCCCC1,"inconclusive: 5.8 µM [falling, partial curve, poor fit]"
20,COc1ccc(NC(=O)CSc2nc3ncccc3[nH]2)c(OC)c1,"inconclusive: 6.51 µM [activator, single point]"
21,O=C1C2CCCN2C(c2ccccc2F)N1c1ccc(Cl)cc1 (stereo unspecified),"inconclusive: 23.1 µM [activator, single point]"
22,COc1ccc(NC(=O)/C(=C/c2ccc3c(c2)OCO3)NC(C)=O)cc1,inactive
